Reference: publication doi:10.1101/2024.01.22.576777
These are yes or no findings as the source states them, for the method shown. In cells and extracts the contact can be indirect. Some entries that bind do so weakly or less than the wild type.

Chains of the proteins cited; added tags and fusions are not shown. Residues count along the entry.
UniProt Q14416, residues 19-872: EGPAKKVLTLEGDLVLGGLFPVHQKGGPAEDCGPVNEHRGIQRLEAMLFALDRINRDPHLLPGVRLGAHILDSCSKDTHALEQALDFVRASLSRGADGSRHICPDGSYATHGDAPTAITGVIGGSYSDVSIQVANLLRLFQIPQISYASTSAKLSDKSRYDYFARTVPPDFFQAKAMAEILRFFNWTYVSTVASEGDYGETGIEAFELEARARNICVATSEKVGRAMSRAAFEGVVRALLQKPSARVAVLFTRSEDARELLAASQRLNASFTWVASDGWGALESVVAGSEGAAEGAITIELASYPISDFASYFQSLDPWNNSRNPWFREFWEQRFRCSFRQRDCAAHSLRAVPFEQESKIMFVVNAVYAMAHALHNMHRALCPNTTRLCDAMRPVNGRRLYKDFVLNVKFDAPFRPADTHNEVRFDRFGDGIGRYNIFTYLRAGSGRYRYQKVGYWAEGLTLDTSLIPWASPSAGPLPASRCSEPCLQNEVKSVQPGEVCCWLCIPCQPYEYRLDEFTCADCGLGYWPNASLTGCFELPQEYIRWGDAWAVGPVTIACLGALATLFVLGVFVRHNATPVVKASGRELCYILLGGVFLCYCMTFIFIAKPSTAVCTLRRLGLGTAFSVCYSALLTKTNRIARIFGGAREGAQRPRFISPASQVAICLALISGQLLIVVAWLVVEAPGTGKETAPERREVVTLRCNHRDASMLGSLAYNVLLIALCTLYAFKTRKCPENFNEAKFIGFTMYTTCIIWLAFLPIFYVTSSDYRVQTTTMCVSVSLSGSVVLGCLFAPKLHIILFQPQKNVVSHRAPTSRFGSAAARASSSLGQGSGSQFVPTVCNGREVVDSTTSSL
UniProt Q14832, residues 23-879: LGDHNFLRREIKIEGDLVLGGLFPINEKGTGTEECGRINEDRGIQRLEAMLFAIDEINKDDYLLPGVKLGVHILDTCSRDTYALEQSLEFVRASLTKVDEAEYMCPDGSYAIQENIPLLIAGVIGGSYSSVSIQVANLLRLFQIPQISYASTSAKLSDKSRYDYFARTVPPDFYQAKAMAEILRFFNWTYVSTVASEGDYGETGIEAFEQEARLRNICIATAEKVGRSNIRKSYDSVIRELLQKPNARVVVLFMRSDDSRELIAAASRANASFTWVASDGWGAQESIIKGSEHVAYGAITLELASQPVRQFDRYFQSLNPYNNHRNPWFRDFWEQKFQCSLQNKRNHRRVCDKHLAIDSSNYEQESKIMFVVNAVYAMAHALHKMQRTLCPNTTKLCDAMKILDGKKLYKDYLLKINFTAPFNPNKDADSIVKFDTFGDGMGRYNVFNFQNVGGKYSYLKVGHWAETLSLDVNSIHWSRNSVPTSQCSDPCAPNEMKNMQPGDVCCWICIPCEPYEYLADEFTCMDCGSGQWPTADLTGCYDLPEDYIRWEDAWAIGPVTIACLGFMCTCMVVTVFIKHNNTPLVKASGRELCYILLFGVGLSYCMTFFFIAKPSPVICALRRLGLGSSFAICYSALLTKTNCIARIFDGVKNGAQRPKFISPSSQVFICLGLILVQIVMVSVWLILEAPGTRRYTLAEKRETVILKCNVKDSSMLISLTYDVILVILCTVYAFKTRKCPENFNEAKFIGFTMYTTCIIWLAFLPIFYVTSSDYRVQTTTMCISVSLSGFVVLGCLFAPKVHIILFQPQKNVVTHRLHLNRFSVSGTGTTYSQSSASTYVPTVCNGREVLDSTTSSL
UniProt P41594, residues 21-1212: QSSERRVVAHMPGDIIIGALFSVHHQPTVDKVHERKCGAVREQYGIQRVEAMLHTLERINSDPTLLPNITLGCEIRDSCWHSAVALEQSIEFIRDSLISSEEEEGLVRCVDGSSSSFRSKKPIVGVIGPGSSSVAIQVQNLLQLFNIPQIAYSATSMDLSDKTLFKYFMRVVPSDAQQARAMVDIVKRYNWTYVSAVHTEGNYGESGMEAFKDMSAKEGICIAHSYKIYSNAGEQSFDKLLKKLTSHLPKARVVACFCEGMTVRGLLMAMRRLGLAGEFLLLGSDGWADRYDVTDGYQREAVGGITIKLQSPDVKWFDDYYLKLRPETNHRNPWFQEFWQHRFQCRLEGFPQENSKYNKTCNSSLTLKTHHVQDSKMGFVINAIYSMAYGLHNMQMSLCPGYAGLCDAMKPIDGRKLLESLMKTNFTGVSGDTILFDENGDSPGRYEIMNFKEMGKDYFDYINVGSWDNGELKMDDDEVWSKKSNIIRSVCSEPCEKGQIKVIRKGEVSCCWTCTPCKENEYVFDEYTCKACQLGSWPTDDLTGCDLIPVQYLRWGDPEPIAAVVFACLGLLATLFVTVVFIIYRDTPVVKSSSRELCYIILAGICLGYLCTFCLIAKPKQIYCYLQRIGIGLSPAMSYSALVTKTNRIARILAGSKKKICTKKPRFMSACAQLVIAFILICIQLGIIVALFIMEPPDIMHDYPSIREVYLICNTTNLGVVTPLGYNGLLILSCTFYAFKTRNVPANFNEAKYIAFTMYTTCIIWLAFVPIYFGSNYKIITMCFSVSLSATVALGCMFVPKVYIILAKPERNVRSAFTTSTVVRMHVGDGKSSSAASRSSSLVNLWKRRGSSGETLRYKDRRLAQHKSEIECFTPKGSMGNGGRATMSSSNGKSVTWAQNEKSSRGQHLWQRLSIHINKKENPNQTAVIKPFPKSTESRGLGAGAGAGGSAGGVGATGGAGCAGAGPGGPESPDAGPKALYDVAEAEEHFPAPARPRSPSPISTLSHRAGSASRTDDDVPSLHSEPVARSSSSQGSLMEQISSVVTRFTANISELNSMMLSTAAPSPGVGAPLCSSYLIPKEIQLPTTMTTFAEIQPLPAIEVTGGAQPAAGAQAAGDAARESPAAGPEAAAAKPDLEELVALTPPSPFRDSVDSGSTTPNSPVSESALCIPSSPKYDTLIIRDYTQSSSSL

Key:
Snap-tagged APP (human) = Snap-tagged APP (human) (UniProt P05067); assay: FRET or BRET
[1] = biological target: Snap-tagged human mGlu2 receptor (human) (UniProt Q14416); assay: FRET or BRET

| Substance | binding (Snap-tagged APP (human)) | binding [1] |
| --- | --- | --- |
| Halo-tagged mGluR3 (from UniProt Q14832 23-879) (receptor) | binds | – |
| Halo-tagged mGluR5 (from UniProt P41594 21-1212) (receptor) | – | no binding |
